These are yes or no findings as the source states them, for the method shown. Binding seen in cells or lysates may run through a third protein. Some binding calls cover weakened binding; strength is not graded here. For part of these data: Where a sequence is shown, tags or fusion partners need not be part of it.
T1: CCN6-FLAG (UniProt D3Z5L9)
T1 sequence: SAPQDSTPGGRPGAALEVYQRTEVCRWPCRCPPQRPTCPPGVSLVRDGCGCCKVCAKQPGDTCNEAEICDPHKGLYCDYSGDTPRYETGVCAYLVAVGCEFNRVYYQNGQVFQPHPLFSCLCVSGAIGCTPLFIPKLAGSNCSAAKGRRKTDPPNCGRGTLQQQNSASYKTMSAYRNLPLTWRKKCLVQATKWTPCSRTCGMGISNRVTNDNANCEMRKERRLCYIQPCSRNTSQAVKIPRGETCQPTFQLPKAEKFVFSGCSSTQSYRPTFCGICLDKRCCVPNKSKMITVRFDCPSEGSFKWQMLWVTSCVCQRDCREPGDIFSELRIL

By UniProt entry, the sequences of proteins in these tests, tags left out. Where a name states a change or a piece, a line headed by the entry shows the natural chain unless it says otherwise.
UniProt Q7TQI3: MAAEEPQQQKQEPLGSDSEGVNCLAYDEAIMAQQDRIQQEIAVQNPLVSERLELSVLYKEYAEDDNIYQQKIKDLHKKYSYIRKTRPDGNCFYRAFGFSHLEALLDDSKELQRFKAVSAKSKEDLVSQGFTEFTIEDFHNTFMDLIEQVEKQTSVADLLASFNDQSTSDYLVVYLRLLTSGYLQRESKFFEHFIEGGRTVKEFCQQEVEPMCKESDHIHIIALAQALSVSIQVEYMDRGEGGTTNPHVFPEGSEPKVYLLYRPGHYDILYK


Tests used:
[1] = biological target: T1, CCN6-FLAG; experiment: co-IP; 4T1 cells co-transfected with CCN6-FLAG and GFP, OTUB1-GFP or OTUB1 mutant plasmids, 24 h; RIPA whole-cell lysate; anti-FLAG antibody, Sepharose beads, 4°C; Western blot for FLAG and GFP
[2] = biological target: OTU domain, ubiquitin aldehyde binding 1 (OTUB1), endogenous in 4T1 cells (mouse (endogenous in 4T1)) (UniProt Q7TQI3); experiment: co-IP; endogenous proteins; 4T1 cells treated with MG132 (10 μM) for 6 h before lysis; RIPA whole-cell lysate, precleared; anti-OTUB1 antibody (rabbit IgG as control), Sepharose beads, 4°C overnight; Western blot
[3] = biological target: purified His-OTUB1 protein (UniProt Q7TQI3); experiment: pull-down; in vitro interaction assay: purified His-OTUB1 incubated with 4T1 cell lysates at 4°C overnight, harvested with anti-His antibody and Sepharose beads; Western blot for OTUB1 and CCN6; only the target purified

binding [1]	binding [2]	binding [3]	Molecule
binds	–	–	truncated OTUB1 lacking the UBA domain (∆N OTUB1), GFP-tagged (from UniProt Q7TQI3 48-271) (domain or fragment)
–	binds	binds	CCN6 (WNT-inducible signalling pathway protein 3), endogenous in 4T1 cells (protein, UniProt D3Z5L9 24-354) SAPQDSTPGGRPGAALEVYQRTEVCRWPCRCPPQRPTCPPGVSLVRDGCGCCKVCAKQPGDTCNEAEICDPHKGLYCDYSGDTPRYETGVCAYLVAVGCEFNRVYYQNGQVFQPHPLFSCLCVSGAIGCTPLFIPKLAGSNCSAAKGRRKTDPPNCGRGTLQQQNSASYKTMSAYRNLPLTWRKKCLVQATKWTPCSRTCGMGISNRVTNDNANCEMRKERRLCYIQPCSRNTSQAVKIPRGETCQPTFQLPKAEKFVFSGCSSTQSYRPTFCGICLDKRCCVPNKSKMITVRFDCPSEGSFKWQMLWVTSCVCQRDCREPGDIFSELRIL

From article PMC10444971
